From US6960440
No constants are given. Whether binding was seen depends on the method and setting. For some assays here: Binding seen in cells or lysates may run through a third protein. Some results given as binding are weak or reduced against the parent protein; the word gives no strength. For some assays here: Where a sequence is shown, tags or fusion partners need not be part of it.

Sequences of proteins named here, by UniProt entry; tags and fusion partners are left off. A change or cut given only in a name is not applied to a line headed by its entry.
UniProt P0A7C2: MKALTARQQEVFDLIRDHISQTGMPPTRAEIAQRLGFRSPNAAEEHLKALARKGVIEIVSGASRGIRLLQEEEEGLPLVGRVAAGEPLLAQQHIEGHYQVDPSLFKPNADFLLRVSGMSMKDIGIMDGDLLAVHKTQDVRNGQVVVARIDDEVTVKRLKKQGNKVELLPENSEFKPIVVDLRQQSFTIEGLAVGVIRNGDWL
UniProt Q9WTZ9: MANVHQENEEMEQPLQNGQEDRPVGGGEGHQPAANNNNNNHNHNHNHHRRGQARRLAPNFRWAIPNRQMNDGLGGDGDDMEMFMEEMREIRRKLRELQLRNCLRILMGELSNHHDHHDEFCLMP

Assays:
[1] = target: full length rat p75NTR expressed in 293T cells (pcDNA3/rat p75NTR) (rat) (UniProt P07174); experiment: co-immunoprecipitation from co-transfected 293T cells (FIG. 2B)
[2] = target: full length rat p75NTR expressed in 293T cells (pcDNA3/rat p75NTR) (rat) (UniProt P07174); experiment: co-immunoprecipitation from co-transfected 293T cells (anti-Myc IP, anti-p75NTR blot)
[3] = target: full length rat p75NTR expressed in 293T cells (pcDNA3/rat p75NTR) (rat) (UniProt P07174); experiment: co-immunoprecipitation from co-transfected 293T cells treated with NGF
[4] = target: full length rat p75NTR expressed in 293T cells (pcDNA3/rat p75NTR) (rat) (UniProt P07174); experiment: co-immunoprecipitation from co-transfected 293T cells treated with various concentrations of NGF
[5] = target: T1, GST-rat p75NTRICD fusion protein (a.a. 338-396), E. coli-expressed (rat) (UniProt P07174); experiment: in vitro GST pull-down, 35S-labelled in vitro-translated NADE
T1 sequence (looked up): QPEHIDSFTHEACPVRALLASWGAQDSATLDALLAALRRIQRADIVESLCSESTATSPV

[6] = target: T1, GST-rat p75NTRICD fusion protein (a.a. 338-396), E. coli-expressed (rat); experiment: in vitro GST pull-down (FIG. 2A)
[7] = target: T2, LexA-p75NTR (338-396) protein (rat) (UniProt P0A7C2+P07174); experiment: yeast two-hybrid screen
[8] = target: T2, LexA-p75NTR (338-396) protein (rat); experiment: yeast two-hybrid, HIS3 and lacZ reporters, mating test

Myc-tagged mouse NADE expressed in 293T cells (pcDNA3.1(-)Myc-HisA/NADE) (from UniProt Q9WTZ9 1-124)
binding [1]: binds | binding [2]: binds | binding [3]: binds | binding [4]: binds

in vitro-translated mouse NADE protein (p75NTR-associated cell death executor) (from UniProt Q9WTZ9 1-124)
binding [5]: binds | binding [6]: binds

mouse cDNA clone No. 59 (NADE) from the mouse embryo pVP16 cDNA library (from UniProt Q9WTZ9 1-124)
binding [7]: binds | binding [8]: binds
